Patent US20230002757A1
No constants are given. Whether binding was seen depends on the method and setting. Some results given as binding are weak or reduced against the parent protein; the word gives no strength.

Protein sequences, listed by entry. Tags and fused reporters are not part of them. Lines headed by an entry give the natural chain unless they say otherwise; changes in a name come on top. Chains listed by the source or under a name are the forms on record and can include a tag or linker. Residues count along the entry.
MSLN epitope domain 1 (Q13421, residues 296-390): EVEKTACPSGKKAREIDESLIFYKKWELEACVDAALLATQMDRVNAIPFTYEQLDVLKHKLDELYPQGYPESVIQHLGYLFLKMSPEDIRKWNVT
mesothelin (MSLN), full length (Q13421, form named): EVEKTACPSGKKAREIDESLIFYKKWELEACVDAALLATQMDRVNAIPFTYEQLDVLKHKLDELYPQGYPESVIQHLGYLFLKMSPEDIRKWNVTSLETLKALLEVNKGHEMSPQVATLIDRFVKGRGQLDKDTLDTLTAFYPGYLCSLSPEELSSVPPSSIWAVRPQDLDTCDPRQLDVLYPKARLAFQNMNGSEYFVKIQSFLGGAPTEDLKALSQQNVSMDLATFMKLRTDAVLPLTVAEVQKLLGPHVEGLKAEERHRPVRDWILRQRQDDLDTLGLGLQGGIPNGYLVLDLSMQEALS
MSLN epitope domain 2 (Q13421, form named): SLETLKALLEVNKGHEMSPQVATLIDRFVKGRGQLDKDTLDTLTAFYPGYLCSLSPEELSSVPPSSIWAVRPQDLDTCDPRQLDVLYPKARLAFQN
UniProt Q02223: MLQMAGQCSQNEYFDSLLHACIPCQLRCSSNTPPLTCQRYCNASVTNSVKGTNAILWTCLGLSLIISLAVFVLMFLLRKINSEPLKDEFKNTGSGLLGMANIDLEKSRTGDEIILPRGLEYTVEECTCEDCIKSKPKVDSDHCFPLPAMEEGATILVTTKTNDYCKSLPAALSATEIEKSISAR
BCMA-Fc: residues 1-54 of Q02223

B1: NBL501#008 (VHH)
VHH: QVQLVESGGGLVQAGGSLRLSCVASGIVFRLNAMGWFRQAPGRERELVATIASGGWAYYGDTMSGRVTISRDNDKNTLYLEMNSLKPEDSAMYYCSAGGARPHSWGQGTQVTVSS
B2: NBL501#009 (VHH)
VHH: EVQVVESGGGLVQAGGSLRLSCVASGFTFSVAAMRWYRQAPGKQREWVASAFSDGNLHYEDFVKGRFTISRDDAKNTLYLQMDSLKPEDTAVYYCNAGTPSRAYWGQGTQVTVSS
B3: NBL507-A1L1-P1R2-1A1-(1)-PME207-SEQF_A01 (VHH)
VHH: EVQLVESGGGLVQPGGSLRLSCAASGFTFRSSAMSWARQAPGKGLEWVSDIYPDGRTDYADSIKGRFTMSRDNAKNTVYLLMDSLKPEDTAVYHCQVGRYVSGVYYQPRGQGTQVTVSS
B4: NBL507-A1L1-P1R2-1D2-(9)-PME207-SEQF_A02 (VHH)
VHH: QVQLVESGGGLVQPGGSLRLSCAASGFTFSSSAMSWARQAPGKGLECVSDIYPDGTSSYADSMKGRFTISRDNTRNTMYLQMNVLKPEDTATYYCVIGRGGYAMGDRRLRGQGTQVTVSS
B5: NBL501#002 (VHH)
VHH: QVQLVESGGGLVQAGGSLRLSCAASISIRRINAMGWYRQAPGKERELVAVISSPNKTLYADSVKGRFTISKDNYTNTLYLQMNSLKPEDTAMYYCSAWRIGVDTTDYYGQGTQVTVSS
B6: NBL501#004 (VHH)
VHH: EVQVVESGGGLVQAGGSLRLSCVPSGSISSIYAMGWYRQALGPERELVAAQTLGGGTYYANPVKGRFTIYRDNDKNTLYLQMNNLKPEDTAMYYCATPGEHWGSSDVTNWGQGTQVTVSS

How the values were obtained:
MSLN epitope domain 1 = MSLN epitope domain 1 (UniProt Q13421); experiment: ELISA, supernatant
[1] = target: mesothelin (MSLN), full length (UniProt Q13421); experiment: ELISA, supernatant
MSLN epitope domain 2 = MSLN epitope domain 2 (UniProt Q13421); experiment: ELISA, supernatant
BCMA-His (human) = BCMA-His (human) (UniProt Q02223); experiment: ELISA
BCMA-Fc (human) = BCMA-Fc (human) (UniProt Q02223); experiment: ELISA
BCMA on RPMI8226 cells = BCMA on RPMI8226 cells (UniProt Q02223); experiment: flow cytometry

Binder | binding (MSLN epitope domain 1) | binding [1] | binding (MSLN epitope domain 2) | binding (BCMA-His (human)) | binding (BCMA-Fc (human)) | binding (BCMA on RPMI8226 cells)
B1 | binds | binds |  |  |  | 
B2 |  | binds | binds |  |  | 
B3 |  |  |  | binds | binds | binds
B4 |  |  |  | binds | binds | binds
B5 | binds | binds |  |  |  | 
B6 | binds | binds |  |  |  | 
